Measurements as given in patent US6221901A, “Magnesium (-)hydroxycitrate, method of preparation, applications, and compositions in particular pharmaceutical containing same” (priority 1996, dated 2001).
The name of at least one read-out is uncertain.

System: human epithelial cells and rat arterial smooth muscle cells
Experiment: Mortality of human epithelial cells and of rat arterial smooth muscle cells (antioxidant effect, model of oxygen toxicity)
Assay type: cell-based
Conditions: in culture medium: (-)hydroxycitrate 0.1 mM, silicon 0.036 mM, magnesium 0.1 mM
Protocol: 1) Study of the Mortality of Human Epithelial Cells and of Rat Arterial Smooth Muscle Cells.
The antioxidant effects of (-)hydroxycitrate and of different minerals were tested according to the protocol described by Michiels et al: "A new experimental model to study oxygen toxicity", Arch. int. Physiol. Biochem. 94 (5), S13-S18, 1986, using rat hepatocytes, as well as human epithelial cells and rat arterial smooth muscle cells.
The various products were respectively tested at the following concentrations: […]

| Structure (SMILES) | Reduction in percentages: cell mortality [%] | Reduction in percentages: cell mortality (100 µM) | Reduction in percentages: cell mortality (listed as magnesium (-)hydroxycitrate, 100 µM) [%] |
| --- | --- | --- | --- |
| O=C(O)CC(O)(C(=O)O)C(O)C(=O)O (single isomer, unassigned; (-)) [(-)hydroxycitrate, (-)hydroxycitric acid] | 0 | – | – |
| O=C(O)C[C@@](O)(C(=O)O)[C@H](O)C(=O)O [Magnesium (-)hydroxycitrate, magnesium (-)hydroxycitrate] | – | 70 (±8) % | 70±8 |
